Our source for the binding values is publication doi:10.1101/524959.

Chains of the proteins cited; added tags and fusions are not shown.
UniProt Q9HFE8: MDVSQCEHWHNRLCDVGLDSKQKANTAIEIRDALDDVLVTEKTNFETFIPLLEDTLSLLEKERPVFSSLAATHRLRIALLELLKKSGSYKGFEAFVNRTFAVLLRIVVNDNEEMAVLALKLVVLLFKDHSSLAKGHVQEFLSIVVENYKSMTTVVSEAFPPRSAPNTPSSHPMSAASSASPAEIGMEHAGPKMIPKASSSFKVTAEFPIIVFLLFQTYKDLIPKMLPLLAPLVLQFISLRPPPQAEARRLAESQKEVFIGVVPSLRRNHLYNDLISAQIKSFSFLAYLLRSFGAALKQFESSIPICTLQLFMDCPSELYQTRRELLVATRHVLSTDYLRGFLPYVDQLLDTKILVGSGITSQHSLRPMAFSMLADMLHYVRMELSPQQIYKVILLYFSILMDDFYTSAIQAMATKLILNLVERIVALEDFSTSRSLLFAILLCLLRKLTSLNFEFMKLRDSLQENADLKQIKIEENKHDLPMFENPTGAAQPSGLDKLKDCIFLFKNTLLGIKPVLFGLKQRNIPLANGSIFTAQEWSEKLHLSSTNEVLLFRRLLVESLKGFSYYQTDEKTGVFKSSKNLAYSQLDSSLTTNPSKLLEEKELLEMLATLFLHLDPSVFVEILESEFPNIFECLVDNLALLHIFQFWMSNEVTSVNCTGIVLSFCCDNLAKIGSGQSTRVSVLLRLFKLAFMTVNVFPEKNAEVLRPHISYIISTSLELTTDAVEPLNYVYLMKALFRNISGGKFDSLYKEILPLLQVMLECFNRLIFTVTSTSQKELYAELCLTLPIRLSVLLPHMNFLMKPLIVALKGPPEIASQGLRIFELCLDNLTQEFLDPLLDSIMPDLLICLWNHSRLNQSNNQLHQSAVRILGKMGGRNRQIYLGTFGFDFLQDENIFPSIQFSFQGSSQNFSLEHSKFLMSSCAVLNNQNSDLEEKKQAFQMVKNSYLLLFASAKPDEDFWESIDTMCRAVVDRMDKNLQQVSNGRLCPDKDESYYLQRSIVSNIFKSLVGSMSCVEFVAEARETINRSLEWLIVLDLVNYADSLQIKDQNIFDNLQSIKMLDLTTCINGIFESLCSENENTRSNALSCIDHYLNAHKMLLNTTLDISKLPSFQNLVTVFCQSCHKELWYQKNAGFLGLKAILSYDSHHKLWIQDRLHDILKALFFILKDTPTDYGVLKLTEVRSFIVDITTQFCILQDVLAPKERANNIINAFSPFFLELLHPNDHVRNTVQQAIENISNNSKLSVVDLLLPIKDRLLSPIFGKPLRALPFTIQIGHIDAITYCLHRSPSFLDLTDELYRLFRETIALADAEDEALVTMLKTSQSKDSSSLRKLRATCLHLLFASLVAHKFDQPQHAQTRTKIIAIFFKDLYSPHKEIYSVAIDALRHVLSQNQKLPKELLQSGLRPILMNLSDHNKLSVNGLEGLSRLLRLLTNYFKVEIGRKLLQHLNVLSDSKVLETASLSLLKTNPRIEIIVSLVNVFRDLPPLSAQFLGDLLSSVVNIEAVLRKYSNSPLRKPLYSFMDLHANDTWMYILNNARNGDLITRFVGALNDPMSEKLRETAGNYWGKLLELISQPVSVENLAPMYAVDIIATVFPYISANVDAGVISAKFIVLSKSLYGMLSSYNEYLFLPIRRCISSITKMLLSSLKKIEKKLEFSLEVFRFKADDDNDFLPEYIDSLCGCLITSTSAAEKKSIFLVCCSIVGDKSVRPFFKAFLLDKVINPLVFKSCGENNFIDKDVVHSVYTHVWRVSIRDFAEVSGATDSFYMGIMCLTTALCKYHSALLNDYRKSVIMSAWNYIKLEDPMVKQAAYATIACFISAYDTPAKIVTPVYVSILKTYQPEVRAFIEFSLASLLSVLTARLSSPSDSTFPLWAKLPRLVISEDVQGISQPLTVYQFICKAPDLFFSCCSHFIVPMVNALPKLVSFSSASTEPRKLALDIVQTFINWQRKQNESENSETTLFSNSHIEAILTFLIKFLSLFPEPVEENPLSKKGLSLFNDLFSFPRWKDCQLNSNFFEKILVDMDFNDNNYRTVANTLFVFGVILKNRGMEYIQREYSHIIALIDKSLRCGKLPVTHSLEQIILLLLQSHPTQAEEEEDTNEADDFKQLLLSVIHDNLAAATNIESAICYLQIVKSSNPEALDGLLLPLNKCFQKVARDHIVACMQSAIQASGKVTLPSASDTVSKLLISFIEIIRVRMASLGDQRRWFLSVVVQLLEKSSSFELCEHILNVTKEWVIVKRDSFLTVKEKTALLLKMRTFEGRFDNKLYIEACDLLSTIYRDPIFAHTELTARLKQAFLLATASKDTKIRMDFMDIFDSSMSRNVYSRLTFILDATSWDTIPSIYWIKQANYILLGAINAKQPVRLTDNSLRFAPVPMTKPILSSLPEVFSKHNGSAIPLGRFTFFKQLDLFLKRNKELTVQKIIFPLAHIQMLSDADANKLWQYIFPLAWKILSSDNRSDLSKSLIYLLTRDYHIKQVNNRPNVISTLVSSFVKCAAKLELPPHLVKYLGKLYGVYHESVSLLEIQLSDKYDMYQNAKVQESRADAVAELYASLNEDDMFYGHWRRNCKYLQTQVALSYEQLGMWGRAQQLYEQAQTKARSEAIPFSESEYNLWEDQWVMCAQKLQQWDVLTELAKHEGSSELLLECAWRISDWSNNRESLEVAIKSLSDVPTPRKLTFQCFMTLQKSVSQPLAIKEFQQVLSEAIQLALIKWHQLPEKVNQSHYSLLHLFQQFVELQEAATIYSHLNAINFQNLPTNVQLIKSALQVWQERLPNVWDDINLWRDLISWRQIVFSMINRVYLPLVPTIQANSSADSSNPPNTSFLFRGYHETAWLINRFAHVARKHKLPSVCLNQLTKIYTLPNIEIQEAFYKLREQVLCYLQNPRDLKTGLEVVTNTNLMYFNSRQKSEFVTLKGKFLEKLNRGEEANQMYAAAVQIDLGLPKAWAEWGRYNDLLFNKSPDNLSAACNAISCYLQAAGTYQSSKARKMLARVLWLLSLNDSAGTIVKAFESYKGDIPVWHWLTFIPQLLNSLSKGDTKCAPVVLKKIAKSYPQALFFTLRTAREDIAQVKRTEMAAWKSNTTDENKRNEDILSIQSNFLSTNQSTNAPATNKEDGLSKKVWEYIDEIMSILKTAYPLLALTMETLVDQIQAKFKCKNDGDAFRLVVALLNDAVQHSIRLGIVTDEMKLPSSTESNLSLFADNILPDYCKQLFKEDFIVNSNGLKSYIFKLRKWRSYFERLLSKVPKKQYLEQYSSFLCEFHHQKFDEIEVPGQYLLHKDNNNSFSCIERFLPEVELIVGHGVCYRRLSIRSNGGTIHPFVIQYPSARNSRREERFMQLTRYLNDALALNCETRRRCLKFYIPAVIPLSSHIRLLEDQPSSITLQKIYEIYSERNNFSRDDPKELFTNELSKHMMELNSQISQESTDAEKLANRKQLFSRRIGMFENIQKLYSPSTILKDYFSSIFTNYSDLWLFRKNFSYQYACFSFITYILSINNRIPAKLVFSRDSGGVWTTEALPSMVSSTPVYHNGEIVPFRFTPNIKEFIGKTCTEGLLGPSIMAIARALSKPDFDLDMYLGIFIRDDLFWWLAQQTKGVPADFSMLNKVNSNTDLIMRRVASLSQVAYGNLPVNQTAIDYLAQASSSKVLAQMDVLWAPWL

Holding throughout (assay): affinity purification with mass spectrometry
In one experiment the target is T1, Spt20 (S. pombe) (UniProt O14174).
T1 sequence: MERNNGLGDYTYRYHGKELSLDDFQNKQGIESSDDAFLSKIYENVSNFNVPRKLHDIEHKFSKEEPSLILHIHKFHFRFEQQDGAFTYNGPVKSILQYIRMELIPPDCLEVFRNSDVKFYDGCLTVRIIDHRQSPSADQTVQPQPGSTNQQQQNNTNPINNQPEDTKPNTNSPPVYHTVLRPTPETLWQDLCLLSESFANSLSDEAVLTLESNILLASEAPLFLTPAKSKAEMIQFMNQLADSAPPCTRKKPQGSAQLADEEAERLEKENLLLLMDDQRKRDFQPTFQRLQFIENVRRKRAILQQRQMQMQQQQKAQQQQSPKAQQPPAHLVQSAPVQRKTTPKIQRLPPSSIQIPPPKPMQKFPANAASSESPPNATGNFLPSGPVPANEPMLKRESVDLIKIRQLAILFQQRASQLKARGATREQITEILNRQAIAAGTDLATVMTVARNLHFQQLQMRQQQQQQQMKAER

The target of the next experiment is T2, Spt20-300 (S. pombe) (UniProt O14174).
T2 sequence: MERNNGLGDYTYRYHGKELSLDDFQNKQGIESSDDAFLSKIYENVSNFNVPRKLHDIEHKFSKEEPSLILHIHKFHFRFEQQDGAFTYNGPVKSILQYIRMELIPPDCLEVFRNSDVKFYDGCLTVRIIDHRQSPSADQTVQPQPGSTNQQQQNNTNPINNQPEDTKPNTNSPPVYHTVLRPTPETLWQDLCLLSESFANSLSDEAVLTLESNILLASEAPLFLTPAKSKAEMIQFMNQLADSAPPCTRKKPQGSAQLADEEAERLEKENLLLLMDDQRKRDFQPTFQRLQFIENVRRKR

Another experiment concerns the target T3, Tti2 (S. pombe) (UniProt O94729).
T3 sequence: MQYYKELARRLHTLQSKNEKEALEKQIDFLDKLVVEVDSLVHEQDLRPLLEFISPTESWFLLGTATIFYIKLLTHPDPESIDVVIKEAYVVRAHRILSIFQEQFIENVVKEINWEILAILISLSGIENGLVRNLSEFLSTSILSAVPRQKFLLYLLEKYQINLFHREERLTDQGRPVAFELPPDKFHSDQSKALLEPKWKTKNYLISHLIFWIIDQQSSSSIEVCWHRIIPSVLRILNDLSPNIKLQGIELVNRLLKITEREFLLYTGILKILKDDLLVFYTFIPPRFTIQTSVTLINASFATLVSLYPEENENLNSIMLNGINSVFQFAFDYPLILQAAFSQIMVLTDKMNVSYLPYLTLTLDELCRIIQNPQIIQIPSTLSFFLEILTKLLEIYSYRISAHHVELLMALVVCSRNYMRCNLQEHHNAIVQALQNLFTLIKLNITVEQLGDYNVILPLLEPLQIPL

The target in a further experiment is T4, Mst1-TAP (S. pombe) (UniProt O94446).
T4 sequence: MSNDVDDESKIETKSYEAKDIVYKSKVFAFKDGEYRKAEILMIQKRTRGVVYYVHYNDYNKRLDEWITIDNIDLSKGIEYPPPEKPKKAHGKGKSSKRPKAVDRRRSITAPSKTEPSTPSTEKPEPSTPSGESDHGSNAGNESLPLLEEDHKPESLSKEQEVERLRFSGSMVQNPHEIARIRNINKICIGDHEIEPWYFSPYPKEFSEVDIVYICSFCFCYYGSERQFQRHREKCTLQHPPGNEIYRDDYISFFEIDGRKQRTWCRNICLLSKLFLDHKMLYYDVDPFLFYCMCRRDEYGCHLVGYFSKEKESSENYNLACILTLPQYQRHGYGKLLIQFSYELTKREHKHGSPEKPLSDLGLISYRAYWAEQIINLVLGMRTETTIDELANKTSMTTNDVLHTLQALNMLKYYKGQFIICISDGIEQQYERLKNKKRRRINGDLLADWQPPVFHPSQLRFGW

A further experiment concerns the target T5, Spt7-TAP (S. pombe) (UniProt P87152).
T5 sequence: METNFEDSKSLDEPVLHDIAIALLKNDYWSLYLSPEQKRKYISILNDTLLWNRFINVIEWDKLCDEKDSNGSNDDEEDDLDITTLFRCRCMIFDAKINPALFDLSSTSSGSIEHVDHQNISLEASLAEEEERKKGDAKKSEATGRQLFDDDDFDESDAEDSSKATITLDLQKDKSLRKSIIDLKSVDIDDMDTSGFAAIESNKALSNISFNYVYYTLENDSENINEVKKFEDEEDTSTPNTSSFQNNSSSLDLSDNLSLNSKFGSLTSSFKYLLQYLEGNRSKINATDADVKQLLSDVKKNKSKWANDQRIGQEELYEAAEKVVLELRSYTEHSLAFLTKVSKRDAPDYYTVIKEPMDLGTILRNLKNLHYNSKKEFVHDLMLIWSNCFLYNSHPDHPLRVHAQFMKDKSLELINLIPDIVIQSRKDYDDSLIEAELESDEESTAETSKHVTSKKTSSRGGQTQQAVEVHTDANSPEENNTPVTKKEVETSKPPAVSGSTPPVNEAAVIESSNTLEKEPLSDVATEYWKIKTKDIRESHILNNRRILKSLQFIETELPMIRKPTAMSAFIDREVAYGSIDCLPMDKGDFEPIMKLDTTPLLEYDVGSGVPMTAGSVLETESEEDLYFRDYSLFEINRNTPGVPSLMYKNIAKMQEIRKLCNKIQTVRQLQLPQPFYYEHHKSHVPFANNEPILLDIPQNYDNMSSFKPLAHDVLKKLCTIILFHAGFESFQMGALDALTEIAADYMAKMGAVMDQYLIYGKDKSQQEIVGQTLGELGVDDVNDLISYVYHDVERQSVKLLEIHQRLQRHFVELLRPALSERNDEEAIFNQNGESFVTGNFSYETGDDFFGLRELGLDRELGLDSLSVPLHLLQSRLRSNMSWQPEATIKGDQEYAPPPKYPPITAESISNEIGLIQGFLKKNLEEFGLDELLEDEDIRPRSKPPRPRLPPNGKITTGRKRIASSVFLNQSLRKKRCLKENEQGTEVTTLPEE

No constants are given. Whether binding was seen depends on the method and setting. Binding seen in cells or lysates may run through a third protein. Here binding means that the protein was enriched with, or labelled near, the bait; the list need not be complete.

As to Tra1 (from UniProt Q9HFE8 1-3661), the binding result with Spt20 (S. pombe), with Spt20-300 (S. pombe) and in the experiment with Tti2 (S. pombe) was “binds” in each case.
In the case of Tra2 (from UniProt Q10064 1-3655), the binding result in the experiment with Mst1-TAP (S. pombe) and with Tti2 (S. pombe) was “binds” in each case.

B1: Spt20-HITΔ (protein, UniProt O14174)
chain: MERNNGLGDYTYRYHGKELSLDDFQNKQGIESSDDAFLSKIYENVSNFNVPRKLHDIEHKFSKEEPSLILHIHKFHFRFEQQDGAFTYNGPVKSILQYIRMELIPPDCLEVFRNSDVKFYDGCLTVRIIDHRQSPSADQTVQPQPGSTNQQQQNNTNPINNQPEDTKPNTNSPPVYHTVLRPTPETLWQDLCLLSESFANSLSDEAVLTLESNILLASEAPLFLTPAKSKAEMIQFMNQLADSAPPCTRKKPQGSAQLADEEAERLEKENLLLLMDDQRKRDFQPTFQRAILQQRQMQMQQQQKAQQQQSPKAQQPPAHLVQSAPVQRKTTPKIQRLPPSSIQIPPPKPMQKFPANAASSESPPNATGNFLPSGPVPANEPMLKRESVDLIKIRQLAILFQQRASQLKARGATREQITEILNRQAIAAGTDLATVMTVARNLHFQQLQMRQQQQQQQMKAER
For the molecule B1, the binding entry in the experiment with Spt7-TAP (S. pombe) is listed as “binds”.

B2: Spt20-290 (domain or fragment, UniProt O14174 1-290)
chain: MERNNGLGDYTYRYHGKELSLDDFQNKQGIESSDDAFLSKIYENVSNFNVPRKLHDIEHKFSKEEPSLILHIHKFHFRFEQQDGAFTYNGPVKSILQYIRMELIPPDCLEVFRNSDVKFYDGCLTVRIIDHRQSPSADQTVQPQPGSTNQQQQNNTNPINNQPEDTKPNTNSPPVYHTVLRPTPETLWQDLCLLSESFANSLSDEAVLTLESNILLASEAPLFLTPAKSKAEMIQFMNQLADSAPPCTRKKPQGSAQLADEEAERLEKENLLLLMDDQRKRDFQPTFQRL
As to B2, the binding result in the experiment with Spt7-TAP (S. pombe) was “binds”.

B3: Spt20-300 (domain or fragment, UniProt O14174 1-300)
chain: MERNNGLGDYTYRYHGKELSLDDFQNKQGIESSDDAFLSKIYENVSNFNVPRKLHDIEHKFSKEEPSLILHIHKFHFRFEQQDGAFTYNGPVKSILQYIRMELIPPDCLEVFRNSDVKFYDGCLTVRIIDHRQSPSADQTVQPQPGSTNQQQQNNTNPINNQPEDTKPNTNSPPVYHTVLRPTPETLWQDLCLLSESFANSLSDEAVLTLESNILLASEAPLFLTPAKSKAEMIQFMNQLADSAPPCTRKKPQGSAQLADEEAERLEKENLLLLMDDQRKRDFQPTFQRLQFIENVRRKR
For the molecule B3, the binding entry with Spt7-TAP (S. pombe) was “binds”.

B4: Spt20 (protein, UniProt O14174 1-473)
chain: MERNNGLGDYTYRYHGKELSLDDFQNKQGIESSDDAFLSKIYENVSNFNVPRKLHDIEHKFSKEEPSLILHIHKFHFRFEQQDGAFTYNGPVKSILQYIRMELIPPDCLEVFRNSDVKFYDGCLTVRIIDHRQSPSADQTVQPQPGSTNQQQQNNTNPINNQPEDTKPNTNSPPVYHTVLRPTPETLWQDLCLLSESFANSLSDEAVLTLESNILLASEAPLFLTPAKSKAEMIQFMNQLADSAPPCTRKKPQGSAQLADEEAERLEKENLLLLMDDQRKRDFQPTFQRLQFIENVRRKRAILQQRQMQMQQQQKAQQQQSPKAQQPPAHLVQSAPVQRKTTPKIQRLPPSSIQIPPPKPMQKFPANAASSESPPNATGNFLPSGPVPANEPMLKRESVDLIKIRQLAILFQQRASQLKARGATREQITEILNRQAIAAGTDLATVMTVARNLHFQQLQMRQQQQQQQMKAER
For B4, the binding result with Spt7-TAP (S. pombe) is recorded as “binds”.
